# About 13,000 (3.2%) of roughly 400,000 compounds were called active. The shares of active, inactive and inconclusive entries below differ from those in the screen. Calls come from the whole dose curve; as a rule, active = well fitted cell-killing curve with a large enough effect; inconclusive = small, poorly fitted or top-dose-only effect, or effect the other way; inactive = flat fitted curve, though single readings scatter. Where the call is inconclusive, the potency comes from a doubtful curve fit.
# Assay: qHTS assay for MDR1-selective chemotherapeutics: Primary screen using the drug-selected MDR subline cells KB-V1; note: nearly all actives have a fitted effect of over 60% in size
# Settings: KB-V1 MDR cells viability, CellTiter-Glo, 72 h; activity change, negative = cytotoxicity: at 46.1 µM (top of the series)
# How it was run: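 Luminescent ATP read-out (CellTiter-Glo, 10 min) measures survival of drug-selected KB-V1 MDR cells after 72 h, 37 degrees C compound exposure. Medium: phenol-red-free DMEM, 10% FBS. Values from fitted concentration-response curves.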
# % is set by controls: 0 for no effect and ±100 for the full control effect; potency is the fitted concentration of half-maximal effect.
SMILES,Potency,"activity change, negative = cytotoxicity"
COc1cccc(-c2cc(C(=O)NCC3CCCO3)on2)c1 (configuration not stated),"inconclusive: 20.6 µM [rising, single point]",–
Cc1cc2cc(CN(Cc3cccs3)Cc3nnnn3CC3CCCO3)c(=O)[nH]c2cc1C (configuration not stated),inactive,–
CCOC(=O)C1(Cc2ccccc2)CCCN(C(=O)COc2ccccc2OC)C1 (configuration not stated),"inconclusive: 18.4 µM [cytotoxic, single point]",–
Cc1cc(Br)ccc1SCC(=O)NCC(c1ccco1)N1CCCCC1 (configuration not stated),"inconclusive: 29.1 µM [cytotoxic, single point]",–
CC(=O)Oc1cccc(C(=O)Nc2cccc(C(=O)Nc3ccccc3C(=O)O)c2)c1,"inconclusive: 29.1 µM [rising, single point]",–
COc1ccc2c(C)c(CCC(=O)NCCc3ccccc3)c(=O)oc2c1,"inconclusive: 29.1 µM [cytotoxic, single point]",–
CCCC1=[N+](CC(=O)c2ccccc2)CCn2cccc21,"inconclusive: 25.9 µM [cytotoxic, partial curve, poor fit]",–
O=C(Nc1ccccc1F)c1ccc(Cn2cc(Br)cn2)cc1,inactive,–
O=C(CN1CCN(C(C(=O)Nc2ccc(F)cc2)c2ccccc2)CC1)NC1CC1 (configuration not stated),inactive,–
COc1ccc(-c2cc(C(=O)N3CCN(C(c4ccccc4)c4ccccc4)CC3)no2)cc1OC,inactive,–
O=C(CSCc1ccc(Cl)cc1)Nc1ccc(-c2nnc(-c3ccccc3)o2)cc1,"inconclusive: 1.64 µM [cytotoxic, partial curve, poor fit]",–
COc1ccc(C2CC(c3ccc4ccccc4c3OC(C)=O)=NN2C(=O)/C=C/c2ccccc2)cc1 (configuration not stated),"inconclusive: 7.31 µM [cytotoxic, partial curve, poor fit]",–
COc1ccc(C(=O)NCC(=O)N/N=C/c2ccc([N+](=O)[O-])s2)cc1OC,"inconclusive: 18.4 µM [rising, single point]",–
Cc1ccccc1NC(=O)c1cc(S(=O)(=O)Nc2cccc(C(=O)O)c2)ccc1Cl,inactive,–
O=C1c2[nH]nc(-c3ccccc3O)c2C(c2ccc(Cl)cc2)N1Cc1ccco1 (configuration not stated),inactive,–
CC1CCCCN1C(=O)CSc1nc(-c2ccccc2)cn1N (configuration not stated),inactive,–
CCOC(=O)c1[nH]c2ccc(F)cc2c1NC(=O)CN1CCN(C/C=C/c2ccccc2)CC1,"inconclusive: 29.1 µM [cytotoxic, single point]",–
O=c1nc2sc3ccccc3n2c(=O)n1-c1ccc(Cl)c(Cl)c1,"inconclusive: 29.1 µM [cytotoxic, single point]",–
CCCc1nnc(SCC(=O)Nc2ccc(Cl)cc2Cl)o1,inactive,–
COc1ccccc1-c1nc2ccccc2nc1-c1ccccc1OC,"inconclusive: 20.6 µM [cytotoxic, single point]",–
Cc1sc2nc(CSCC(=O)Nc3cc(F)ccc3F)[nH]c(=O)c2c1C,"inconclusive: 20.6 µM [rising, single point]",–
C[C@@H]1CN([C@H](C)CO)C(=O)c2cc(Br)cnc2O[C@H]1CN(C)C,"inconclusive: 16.4 µM [rising, partial curve, poor fit]",–
COc1cccc(CNc2nc3cc(C(C)=C(C)C)sc3c(=O)n2C)c1,"inconclusive: 20.6 µM [cytotoxic, single point]",–

SMILES,Potency,"activity change, negative = cytotoxicity"
CCc1ccc(N2CCN(C(=O)N3CCOCC3)CC2)cc1,inactive,–
O=C(Cn1cnc2c(cnn2-c2ccccc2)c1=O)N1CCN(c2ccc(F)cc2)CC1,"inconclusive: 2.59 µM [cytotoxic, full curve, poor fit]",–
COc1cc(C=C(OC(C)=O)c2ccc3c(c2)OCO3)cc(OC)c1OC,"inconclusive: 18.4 µM [cytotoxic, single point]",–
Cc1ccc(/C=C/S(=O)(=O)NCCC(=O)NCc2ccccc2F)cc1,inactive,–
Cc1ccc2nc(N3CCN(Cc4nnnn4Cc4ccccc4)CC3)c(C#N)cc2c1,"inconclusive: 16.4 µM [cytotoxic, single point]",–
O=C(c1ccc(C(F)(F)F)cc1)N1CCC(=O)N(C(COCc2ccccc2)Cc2ccccc2)CC1 (configuration not stated),inactive,–
CCCCCN(C(=O)CCC(=O)OCC(=O)Nc1cccc(SC)c1)c1c(N)n(CCCC)c(=O)[nH]c1=O,–,inconclusive: -32.9%
Cc1cc(C)cc(OCC(=O)NNC(=O)c2cc3ccccc3oc2=O)c1,"inconclusive: 23.1 µM [cytotoxic, single point]",–
Cc1ccc(Nc2nc3c([nH]2)c(=O)n(C)c(=O)n3C)cc1,"inconclusive: 29.1 µM [cytotoxic, single point]",–
COC(=O)CN1C(=O)N/C(=C/c2ccc(OC)cc2)C1=O,inactive,–
O=C1C2C3C=CC(O3)C2C(=O)N1N=Cc1ccc2c(c1)OCO2 (configuration not stated),"inconclusive: 16.4 µM [rising, partial curve, poor fit]",–
COC(=O)C1=C(O)/C(=C\c2cc(C)n(-c3ccc(F)cc3)c2C)N=C1C,–,inconclusive: 6.89%
NC(=O)Nn1c(CCC(=O)O)ccc1-c1ccc(Cl)cc1,"inconclusive: 7.31 µM [rising, partial curve]",–
COC(=O)c1ccc(NC(=O)CN(C)Cc2cccc(F)c2)cc1,"inconclusive: 13 µM [cytotoxic, partial curve, poor fit]",–
CC1Cc2ccccc2N1CC(=O)Nc1cc(S(=O)(=O)N2CCOCC2)ccc1Cl (configuration not stated),"inconclusive: 8.2 µM [cytotoxic, partial curve, poor fit]",–
COc1nc(Nc2ccccc2F)nc(OC)n1,"inconclusive: 4.61 µM [cytotoxic, full curve]",–
O=C(CCC1N=C2c3ccccc3N=C(SCC(=O)Nc3ccccc3F)N2C1=O)NCc1ccccc1 (configuration not stated),"inconclusive: 0.0073 µM [cytotoxic, full curve]",–
O=C(O)c1ccc(C2CCCCC2)cn1,"inconclusive: 23.1 µM [cytotoxic, single point]",–
CCc1c(O)nc(SCC(=O)Nc2ccccc2C)n(-c2ccc(C)cc2)c1=O,"inconclusive: 9.2 µM [rising, partial curve]",–
COc1ccc(S(=O)(=O)N2CCC(C(=O)NC3CCCCC3C)CC2)cc1 (configuration not stated),"inconclusive: 13 µM [cytotoxic, single point]",–
Cc1cc(C(=O)COC(=O)c2ccc[nH]c2=O)c(C)n1CCc1ccc(F)cc1,"inconclusive: 16.4 µM [cytotoxic, single point]",–
COc1ccc2[nH]c(C(=O)N3CCC(n4nccc4NC(=O)C4CC4)CC3)c(C)c2c1,"inconclusive: 3.66 µM [rising, full curve]",–
COc1ccc(/C=C/C(=O)OCC(=O)NCCC2=CCCCC2)cc1,"inconclusive: 29.1 µM [rising, single point]",–

# Compounds from the list above with a furan ring, fused or not:
SMILES,Potency,"activity change, negative = cytotoxicity"
Cc1cc(Br)ccc1SCC(=O)NCC(c1ccco1)N1CCCCC1 (configuration not stated),"inconclusive: 29.1 µM [cytotoxic, single point]",–
O=C1c2[nH]nc(-c3ccccc3O)c2C(c2ccc(Cl)cc2)N1Cc1ccco1 (configuration not stated),inactive,–

# The listing continues.

SMILES,Potency,"activity change, negative = cytotoxicity"
CC1(C(=O)NS(=O)(=O)c2ccc(Cl)cc2)CCN1C(=O)Cc1ccsc1 (configuration not stated),inactive,–
CCOc1ccc(OCc2cccc(C(=O)N(CC)CC)c2)cc1,"inconclusive: 13 µM [cytotoxic, partial curve]",–
COc1ccc(CCCNC(=O)C2Cc3c(-c4ccccc4)ccnc3O2)cc1 (configuration not stated),"inconclusive: 18.4 µM [cytotoxic, single point]",–
CCc1ccc(CCC(=O)Nc2ccc(Br)cc2)o1,"inconclusive: 23.1 µM [rising, single point]",–
CC1CC(=O)Nc2ccccc2N1C(=O)COc1ccc2cc(Br)ccc2c1 (configuration not stated),active: 16.4 µM,–
CC1(C)CC(=O)C=C(Nc2ccc(F)cc2F)C1,"inconclusive: 25.9 µM [cytotoxic, partial curve, poor fit]",–
Cc1cc(Cl)ccc1NC(=O)CCN1C(=O)C2CCCCC2C1=O (configuration not stated),"inconclusive: 18.4 µM [rising, single point]",–
CCOc1ccc(NC(=O)CN(c2ccc(OCC)cc2)S(=O)(=O)c2c(C)[nH]c(=O)[nH]c2=O)cc1,"inconclusive: 0.651 µM [rising, full curve, poor fit]",–
Cc1cccc(Nc2nc(N)c([N+](=O)[O-])c(N3CCC(C)CC3)n2)c1,"inconclusive: 29.1 µM [cytotoxic, single point]",–
COc1ccc(-c2cc(C(=O)N3CCN(c4ncccn4)CC3)c3ccccc3n2)cc1,"inconclusive: 29.1 µM [cytotoxic, single point]",–
COc1ccccc1N1CCN(C(=O)Cn2ncc3c([nH]c4ccccc43)c2=O)CC1,inactive,–
Cn1ccc(C(=O)Nc2ccc(Br)cc2Br)n1,"inconclusive: 14.6 µM [cytotoxic, partial curve]",–
CSc1ccc(Cn2c(C)c(C(=O)NCc3ccc(Cl)c(Cl)c3)sc2=O)cc1,active: 16.4 µM,–
CCn1c(Cn2nnc(-c3ccccc3)n2)nnc1SCC(=O)N1CCOCC1,inactive,–
CCN(CC)C(=O)c1ccc2c(=O)n(Cc3cccc(Br)c3)c(=S)[nH]c2c1,inactive,–
CC(SC(C)C(=O)NN=Cc1cccc(F)c1)C(=O)NN=Cc1cccc(F)c1 (configuration not stated),inactive,–
CCOC(=O)c1[nH]c2ccc(Br)cc2c1NC(=O)CCN1CCOCC1,"inconclusive: 7.31 µM [cytotoxic, partial curve, poor fit]",–
O=C(CCC(=O)N1CCCc2ccccc21)N1CCN(S(=O)(=O)c2ccccc2)CC1,"inconclusive: 16.4 µM [cytotoxic, single point]",–
CCOC(=O)c1cc(-c2ccccc2)sc1NC(=O)CSc1nnc(N)s1,"inconclusive: 20.6 µM [cytotoxic, single point]",–
Cc1ccc(N(CC(O)COCc2ccco2)S(=O)(=O)c2ccc(C)cc2)cc1 (configuration not stated),active: 20.6 µM,–
COc1cccc(NC(=O)CSC2=Nc3ccccc3C3=NC(CC(=O)NCCc4ccccc4)C(=O)N23)c1 (configuration not stated),"inconclusive: 13 µM [rising, partial curve, poor fit]",–

# Reformatted with bars between the fields: two of the compounds above
SMILES | Potency | activity change, negative = cytotoxicity
CC(SC(C)C(=O)NN=Cc1cccc(F)c1)C(=O)NN=Cc1cccc(F)c1 (configuration not stated) | inactive | –
CCOC(=O)c1[nH]c2ccc(Br)cc2c1NC(=O)CCN1CCOCC1 | inconclusive: 7.31 µM [cytotoxic, partial curve, poor fit] | –

# — PubChem BioAssay AID1347076 (National Center for Advancing Translational Sciences (NCATS), 2019)
